This is one part of the list.
B1: il2ra_site2_3nfp_normal_mot_HHH_b2_04451_000000238_0001_21_37_H_._HHH_b2_04858_af2_0001_0001000029_0000001_0 (protein)
chain: SSSSSEEEEKVKELIEEVEEALKQGDRYEALQLLLEASKIAVRNNNPELARLLLELFEKIQSSSS
B2: il2ra_site2_2erj_sap_17_mot_HHH_b1_05386_000000188_0001_22_38_H_._HHH_b1_00531_0001_0000100002_0000001_0_0001 (protein)
chain: SSSSSDVREEVEELIERAEEAWEKGDLHAVYELANRIMHLAAKYNDPEILELLRELMERVSSSSS
B3: il2ra_site1_1z92_normal_mot_HHH_b1_04604_af2_000000029_0001_42_56_H_._HHH_b2_03915_0001_0000100005_0000001_0_af2pred_0001_af2pred (protein)
chain: SSSSDAELAAEADELLAEGNPEKVEEVLEEIRRAAEERDSRRLKEILENLEEELRELEEESSSSS
B4: il2ra_site2_3nfp_sap_19_mot_HHH_b2_02831_000000278_0001_1_18_H_._5fa2c1a30f04debedfe40931e4d0b367_0001_af2_0001_0000600012_0000001_0_0001 (protein)
chain: SSSSSDEEEAEEAIRILEELGDEEAARYLEAALKLLRENKDPRLRELLKAAVRVVIEARRSSSSS
B5: il2ra_site2_2erj_sap_9_mot_HHH_b1_07584_000000201_0001_42_55_H_._HHH_b2_06441_af2_0001_0000800006_0000001_0_0001 (protein)
chain: SSSSSSEERKEAEELLEEAKEIEDPEEAWEVLREAAELAWEGNDFELWSEIAKILRELASSSSSS
B6: il2ra_site2_3nfp_sap_22_mot_HHH_b1_04960_000000149_0001_23_39_H_._HHH_b2_01371_af2_0001_0000400031_0000001_0_0001 (protein)
chain: SSSSDRAEEYVRAALKLLELALKEGDEEIFERLAEIIEAAIESQGNPELEERLEELKEEGSSSSS
B7: il2ra_site1_2b5i_sap_17_mot_HHH_b2_06557_000000121_0001_42_56_H_._HHH_b1_07426_0001_0000100010_0000001_0_0001_af2pred_0001_af2pred_1 (protein)
chain: SSSSDEAEELFELLEEANKLAHEGNDEEARKLLEEAERLAEEAGNKSLLRLLRAALRILESSSSS
B8: il2ra_site1_2b5i_normal_mot_HHH_b2_04910_000000118_0001_1_19_H_._HHH_b2_03045_0001_0000400017_0000001_1_af2pred_dldesign_0_af2pred (protein)
chain: SSSSSSPELRALLREADALRQAGKDEEAKEVLEEALALAKALKNNAAIKMVESAIKELNSSSSSS
B9: il2ra_site1_2b5i_sap_13_mot_HHH_b2_04274_000000042_0001_1_19_H_._HHH_b2_08110_0001_0000300021_0000001_0_0001_af2pred_dldesign_0_af2pred (protein)
chain: SSSSSRIDRLIELAEEAIAEVKAEGDKAAGAKLVAELRRAAALLKDPRLKALADEAEAWLASSSS
B10: il2ra_site2_3nfp_sap_19_mot_HHH_b2_07209_000000186_0001_1_17_H_._095aa0115aa001b1004419c4ef159b4a_0001_0001_0000100004_0000001_0_0001 (protein)
chain: SSSSDVEELIEEARELIEEGDLFEAAQALMEASKLALELGDPELFRELVKLFEEARERHGSSSSS
B11: il2ra_site1_1z92_sap_14_mot_HHH_b1_01467_000000208_0001_22_39_H_._HHH_b2_01099_0001_0000400016_0000001_0_0001 (protein)
chain: SSSSSREALEELVKSVIELLERVNNPKLFERLKFLLREARLLGDEELVREIEEVLERFEELSSSS
B12: il2ra_site1_3nfp_sap_31_mot_HHH_b1_01273_af2_000000279_0001_1_19_H_._HHH_b1_00743_0001_0000500051_0000001_1_0001 (protein)
chain: SSSSTEELHHLAELVREAYKAAAEGNEEEVEELLEEARRLAEEINDKVARRLLEEIKRNLSSSSS
B13: il2ra_site1_1z92_sap_29_mot_HHH_b1_03199_000000116_0001_40_57_H_._HHH_b1_01207_0001_0000500021_0000001_0_0001 (protein)
chain: PDEYLREQLRKALERDPRAAKNILEKFLRSAGVPPEEIEEILRRVEELAKRDPEKAAELAIELLH
B14: il2ra_site1_1z92_normal_mot_HHH_b1_03815_000000162_0001_1_20_H_._HHH_b1_01429_0001_0000100018_0000001_0 (protein)
chain: SSSSSAEEYIEEMARALYRTIEAKGNPRARERLELLLRQARLLGDEELRELIEQLLEELRSSSSS
B15: il2ra_site1_3nfp_normal_mot_HHH_b1_01335_af2_000000105_0001_39_53_H_._HHH_b1_04597_0001_0000700040_0000001_0_af2pred_0001_1_af2pred_swapped (protein)
chain: SSSSSDEEEVKRLLEEAEEALENGDPEEAHRLLEEALRIAKENDDPELLELVFEAMRRLASSSSS
B16: il2ra_site1_1z92_sap_3_mot_47733d3662eb36425869ff66b6028fdd_0001_af2_000000189_0001_37_50_H_._491eb89182d8d7232e345b1be462dd80_0001_af2_0001_0000100001_0000001_ … (protein)
chain: SSSSSSAEERAEFVFRNAEMLIKRGNEEAVEWAIRLLEAIARLGNDPEAEELVERLRELLSSSSS
B17: il2ra_site2_3nfp_normal_mot_HHH_b2_04451_000000238_0001_21_37_H_._HHH_b2_00723_af2_0001_0000500044_0000001_0 (protein)
chain: SSSSDLEEEVERLIEEVERLLEEGDKHEAAQLLLEATKLVAELNNEELARILLELFELLQKSSSS
B18: il2ra_site2_3nfp_sap_32_mot_HHH_b1_02173_000000190_0001_1_18_H_._f0ee23d083d0677da3dfcc8a6cd225b6_0001_0001_0000400035_0000001_0_0001 (protein)
chain: SSSSDEEELEELLEELRRLVEENDEERARRLIARIAHLAFELNDSEVFFKLAELLYLLVRLSSSS
B19: il2ra_site2_3nfp_normal_mot_HHH_b1_03966_000000254_0001_1_19_H_._HHH_b2_07664_0001_0000100004_0000001_0 (protein)
chain: SSSSDEEEEEAAKLAFLVYELARQGDTEEARKVAEEAIKRAEELGDEKVVRLLELALDALSSSSS
B20: il2ra_site1_2b5i_normal_mot_HHH_b2_06044_000000134_0001_1_20_H_._HHH_b2_07763_af2_0001_0000200019_0000001_1_af2pred_dldesign_0_af2pred (protein)
chain: SSSSSEKEDELYELYNKALELFRAGKREEAKKLLDEALELARELGSEKLAAELERFRALLSSSSS
B21: il2ra_site2_3nfp_sap_22_mot_HHH_b1_04312_000000268_0001_22_39_H_._HHH_b1_01863_af2_0001_0000200011_0000001_0_0001_af2pred_0001_af2pred (protein)
chain: SSSSSSEVEEEIEELIERAKRIPDPHEAFAVLARALRLAEELNDPELLREVRELLRELRSSSSSS
B22: il2ra_site2_2erj_sap_22_mot_HHH_b2_03255_af2_000000127_0001_19_36_H_._HHH_b1_07611_0001_0000100004_0000001_1_0001 (protein)
chain: SSSSDEREELEEEVEELLRQAEERGDLHLLYRIAVEALHRAVRLNDPEAERFIAKLAQELSSSSS
B23: il2ra_site1_3nfp_normal_mot_46d73865503fbedcaf0f3a45445d594c_0001_af2_000000151_0001_1_12_H_._HEEHE_1580_af2_0001_0000500009_0000001_0 (protein)
chain: NLEEAIRLAAEQLAEEVGIPSIEITVENGEVHVTIEGTDNDARVASRLIEEAAKALGVPLEVTLE
B24: il2ra_site2_2erj_normal_mot_HHH_b1_00376_000000139_0001_38_52_H_._HHH_b2_08330_0001_0000700006_0000001_0 (protein)
chain: SSSSTVEELVIEFAEETIEAAERGDEELVRELLEEALEIAERHNNLALFRFLERQLELERSSSSS

molecular target: il2ra, P01589; assay: yeast display titration

Apparent Kd, inactive:
B1 no binding seen
B2 no binding seen
B3 no binding seen
B4 no binding seen
B5 no binding seen
B6 no binding seen
B7 no binding seen
B8 no binding seen
B9 no binding seen
B10 no binding seen
B11 no binding seen
B12 no binding seen
B13 no binding seen
B14 no binding seen
B15 no binding seen
B16 no binding seen
B17 no binding seen
B18 no binding seen
B19 no binding seen
B20 no binding seen
B21 no binding seen
B22 no binding seen
B23 no binding seen
B24 no binding seen

A stretch from further up, as a working copy:
Apparent Kd, inactive:
B22 no binding seen
B23 no binding seen

— paper PMC10163288
